Data as given in PubChem BioAssay AID652272 (Drosophila RNAi Screening Center, 2013)
In all, the deposit lists about 21,000 reagents; below is an unselected part of those with a known target gene and a result. Over the whole deposit, 503 (2.4%) got an active call. 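Raw plate light values, not normalised; calls rest on replicate z-scores that were not deposited; hits include reporter decreases as well as increases.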 A plus sign joins genes that one reagent is predicted to hit. Not given: the amount of reagent, the time to read-out.

Test: 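Genes whose knock-down decreases or increases Hedgehog reporter output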 (primary screen)
Cell system: Drosophila clone 8 (Cl8) cells
Knock-down reagent: long dsRNA against Drosophila genes
Measurement: 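Plate reader light from a firefly reporter under a ptc promoter fragment that responds to Hedgehog, with Renilla light as transfection reference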
Scale: firefly Hh reporter signal: higher = more ptc reporter light; Renilla reference signal: higher = more Renilla control light
Call rule: 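Called a hit if the two-replicate mean z-score lies below -2 or above +3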
Meaning of the calls: active = hit: reporter lowered or raised; inactive = not a hit

gene knocked down | amplicon | firefly Hh reporter signal, replicate 1 | firefly Hh reporter signal, replicate 2 | firefly Hh reporter signal, replicate 3 | Renilla reference signal, replicate 1 | Renilla reference signal, replicate 2 | outcome
Snx3 (GeneID 41551) | DRSC16027 | 91049 | 1.27e5 | – | 2614 | 3625 | inactive
Sox14 (GeneID 37822) | DRSC04656 | 1.63e5 | 65987 | – | 4173 | 6051 | inactive
AP-1-2beta (GeneID 32987) | DRSC19336 | 79360 | 2.45e5 | – | 1853 | 9082 | inactive
soti (GeneID 41748) | DRSC16432 | 1.49e5 | 1.00e5 | – | 5898 | 4130 | inactive
CG10339 (GeneID 37854) | DRSC04065 | 74241 | 36464 | – | 1580 | 4003 | inactive
MED19 (GeneID 39987) | DRSC10516 | 94871 | 40437 | – | 3932 | 2204 | inactive
Inos (GeneID 35671) | DRSC07655 | 68464 | 32178 | – | 1735 | 3593 | inactive
pAbp (GeneID 37070) | DRSC07659 | 60384 | 39814 | – | 3385 | 2072 | inactive
mrva (GeneID 38808) | DRSC11009 | 1.41e5 | 6.73e5 | 1.16e5 | 5756 | 38198 | inactive
AsnRS (GeneID 35194) | DRSC01990 | 50621 | 71844 | – | 2499 | 3238 | inactive
CG9471 (GeneID 41197) | DRSC16499 | 57709 | 1.18e5 | – | 1704 | 3266 | inactive
Cpr65Ec (GeneID 38775) | DRSC11025 | 67498 | 57804 | – | 5808 | 4256 | inactive
CG32333 (GeneID 38142) | DRSC08627 | 98683 | 75690 | – | 5453 | 3449 | inactive
CG32333 (GeneID 38142) | DRSC08629 | 41592 | 25573 | – | 1701 | 2025 | inactive
CG2129 (GeneID 31741) | DRSC18209 | 90363 | 97677 | – | 2312 | 2624 | inactive
htl (GeneID 42160) | DRSC16968 | 1.33e5 | 54496 | – | 5344 | 2180 | inactive
CR42532 (GeneID 8674101) | DRSC06713 | 1.09e5 | 88865 | – | 2928 | 6368 | inactive
Qsox4 (GeneID 318720) | DRSC14224 | 1.08e5 | 96610 | – | 4200 | 3780 | inactive
CG1468 (GeneID 31920) | DRSC17946 | 82784 | 83472 | – | 2197 | 1952 | inactive
CG2747 (GeneID 40950) | DRSC15450 | 94801 | 98216 | – | 3777 | 3144 | inactive
CG5439 (GeneID 34710) | DRSC02861 | 78992 | 51674 | – | 3213 | 2499 | inactive
PNPase (GeneID 43710) | DRSC14304 | 1.13e5 | 89350 | – | 2256 | 2353 | inactive
spdo (GeneID 318559) | DRSC13988 | 4.60e5 | 2.00e5 | – | 21580 | 3040 | inactive
mus301 (GeneID 38905) | DRSC10939 | 55835 | 58784 | – | 7586 | 2651 | inactive
CR18275 + CR18166 + CG32817 | DRSC17249 | 6.57e5 | 3.24e5 | – | 34299 | 7129 | inactive
Frq1 (GeneID 32797) | DRSC19961 | 96738 | 2.59e5 | – | 3416 | 10012 | inactive
Cyfip (GeneID 41861) | DRSC15679 | 1.02e5 | 71574 | – | 4277 | 3081 | inactive
CG6696 (GeneID 32856) | DRSC20004 | 59312 | 2.46e5 | – | 1252 | 9504 | inactive
lncRNA:CR32657 (GeneID 3772397) | DRSC19403 | 67930 | 2.65e5 | – | 1948 | 9923 | inactive
CG18473 (GeneID 41116) | DRSC16381 | 1.22e5 | 1.07e5 | – | 3267 | 2582 | inactive
Rpn13R (GeneID 31433) | DRSC18404 | 76154 | 1.97e5 | – | 2636 | 7287 | inactive
Rassf (GeneID 42734) | DRSC15612 | 95029 | 57680 | – | 3473 | 2363 | inactive
ZnT86D (GeneID 41342) | DRSC16091 | 87009 | 1.29e5 | – | 2289 | 3389 | inactive
CG8679 (GeneID 35395) | DRSC03109 | 86288 | 79578 | – | 2307 | 6336 | inactive
mol (GeneID 34872) | DRSC01431 | 69549 | 5.33e5 | 71866 | 2678 | 3308 | active
mol (GeneID 34872) | DRSC01912 | 91312 | 1.01e5 | – | 3981 | 3928 | inactive
mol (GeneID 34872) | DRSC02479 | 1.41e5 | 91943 | – | 3913 | 8171 | inactive
Hesr (GeneID 32800) | DRSC19965 | 90416 | 2.19e5 | – | 3009 | 9184 | inactive
CG15336 (GeneID 31742) | DRSC18019 | 85824 | 1.78e5 | – | 3018 | 6426 | inactive
NP15.6 (GeneID 42282) | DRSC16756 | 4.58e5 | 1.05e5 | – | 24185 | 2363 | inactive
Sgs5 (GeneID 42114) | DRSC16862 | 88746 | 85504 | – | 3172 | 1883 | inactive
mRpL11 (GeneID 41757) | DRSC15482 | 95820 | 90116 | – | 2705 | 2347 | inactive
Adk1 (GeneID 41476) | DRSC15514 | 56979 | 78968 | – | 1992 | 2109 | inactive
CG13698 (GeneID 40000) | DRSC10047 | 60187 | 27378 | – | 2944 | 1146 | inactive
dsd (GeneID 43315) | DRSC13829 | 48059 | 2.45e5 | – | 12813 | 5337 | inactive
dsd (GeneID 43315) | DRSC15850 | 1.24e5 | 1.09e5 | – | 3104 | 2621 | inactive
CG13151 (GeneID 36374) | DRSC06276 | 80217 | 56688 | – | 1942 | 4108 | inactive
Arpc3B (GeneID 32696) | DRSC20126 | 96336 | 52597 | – | 7201 | 2082 | active
CG16972 (GeneID 34715) | DRSC02550 | 1.19e5 | 87459 | – | 4109 | 2841 | inactive
CG16812 (GeneID 34722) | DRSC02519 | 72592 | 56928 | – | 3056 | 2416 | inactive
CG17109 (GeneID 42730) | DRSC15172 | 6.89e5 | 1.59e5 | – | 36496 | 4891 | inactive
CG32436 (GeneID 40362) | DRSC11683 | 82663 | 1.02e5 | – | 2377 | 2501 | inactive
CG32436 (GeneID 40362) | DRSC11796 | 70516 | 78838 | – | 2026 | 2048 | inactive
Apl (GeneID 59216) | DRSC10350 | 1.44e5 | – | – | 5000 | 4372 | inactive
CG5863 (GeneID 42096) | DRSC15898 | 68163 | 1.18e5 | – | 1319 | 2587 | inactive
CG14505 (GeneID 37098) | DRSC06476 | 89523 | 67932 | – | 1947 | 4966 | inactive
grsm (GeneID 41587) | DRSC14165 | 1.36e5 | 1.33e5 | – | 4928 | 3172 | inactive
grsm (GeneID 41587) | DRSC14843 | 1.15e5 | 1.19e5 | – | 2562 | 2965 | inactive
